At least one compound was matched to its structure with a doubt left.
System: 5/6 remnant kidney 129X1/SvJ mice
Test: 5/6 Remnant Kidney Model with Combination Treatment (Example 3)
Assay type: in vivo
Details: 5/6 nephrectomized mice, compound 3 100 mg/kg subcutaneously once daily, candesartan 5 mg/kg orally once daily
Text: The remnant kidney and the adryamicin drug-induced models are commonly used rodent models for FSGS (de Mik S M. Et al. Pathophysiology and treatment of focal segmental glomerulosclerosis: the role of animal models. BMC Nephrol. 2013 Apr. 1; 14:74). The 5/6 remnant kidney model is representative of secondary FSGS whereas the Adriamycin nephropathy model is representative of primary FSGS.
The 5/6 remnant kidney 129X1/SvJ mice was obtained from Jackson Laboratories. The mice were kept on standard chow and had free access to water. The mice surgery was performed in two stages. Under isoflurane anesthesia, two-thirds of the left kidney mass was dissected. After seven to ten days, a right unilateral nephrectomy was performed. Three to six weeks after the 5/6 nephrectomy, the mice were randomized for the study (n=12 per group). Compound 3 and its vehicle were dosed subcutaneously once daily at 100 mg/kg formulated in 1% HPMC. […]
Urine samples were collected at week one, two and three by individually housing the mice in metabolic cages for 18 hours. Urinary albumin was measured by ELISA (Bethyl Labs, Montgomery, TX), and the urinary albumin excretion rate (UAER) was calculated as micrograms per 24 hours. Urinary creatinine was measured by mass spectrometry. The albumin to creatinine ratio (ACR) was calculated as micrograms of albumin per milligram of creatinine.

Compound: CCOc1nc2cccc(C(=O)O)c2n1Cc1ccc(-c2ccccc2-c2nnn[nH]2)cc1 [candesartan, reference compound]
- UACR values (FIG. 11) (week 1 and week 2): reduction in UACR values
- UAER values (FIG. 10) (weeks 1, 2 and 3): reduction in UAER values

— patent US12194032B2, “Method of treating focal segmental glomerulosclerosis” (ChemoCentryx, Inc., priority 2016, dated 2025)
